Test results taken from publication PMC7522246.
No constants are given. Whether binding was seen depends on the method and setting. Binding seen in cells or lysates may run through a third protein. Some binding calls cover weakened binding; strength is not graded here.

By UniProt entry, the sequences of proteins in these tests, tags left out.
UniProt O14744: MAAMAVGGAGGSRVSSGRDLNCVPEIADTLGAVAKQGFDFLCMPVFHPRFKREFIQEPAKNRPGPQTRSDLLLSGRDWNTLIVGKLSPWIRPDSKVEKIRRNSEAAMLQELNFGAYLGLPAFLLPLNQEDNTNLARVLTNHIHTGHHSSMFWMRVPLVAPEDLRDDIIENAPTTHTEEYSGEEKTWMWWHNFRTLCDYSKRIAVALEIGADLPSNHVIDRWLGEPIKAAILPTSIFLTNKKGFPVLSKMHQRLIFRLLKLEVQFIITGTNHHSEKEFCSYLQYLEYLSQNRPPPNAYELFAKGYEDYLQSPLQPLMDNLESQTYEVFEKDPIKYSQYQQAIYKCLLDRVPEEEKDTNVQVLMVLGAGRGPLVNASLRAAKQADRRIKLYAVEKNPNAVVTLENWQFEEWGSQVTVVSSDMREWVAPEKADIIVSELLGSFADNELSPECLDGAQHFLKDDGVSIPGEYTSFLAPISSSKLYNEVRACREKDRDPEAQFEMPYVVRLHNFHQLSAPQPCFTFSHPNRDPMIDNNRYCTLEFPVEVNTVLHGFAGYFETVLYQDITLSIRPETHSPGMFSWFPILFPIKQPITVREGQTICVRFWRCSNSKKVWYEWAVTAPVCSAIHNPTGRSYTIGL
UniProt P67809: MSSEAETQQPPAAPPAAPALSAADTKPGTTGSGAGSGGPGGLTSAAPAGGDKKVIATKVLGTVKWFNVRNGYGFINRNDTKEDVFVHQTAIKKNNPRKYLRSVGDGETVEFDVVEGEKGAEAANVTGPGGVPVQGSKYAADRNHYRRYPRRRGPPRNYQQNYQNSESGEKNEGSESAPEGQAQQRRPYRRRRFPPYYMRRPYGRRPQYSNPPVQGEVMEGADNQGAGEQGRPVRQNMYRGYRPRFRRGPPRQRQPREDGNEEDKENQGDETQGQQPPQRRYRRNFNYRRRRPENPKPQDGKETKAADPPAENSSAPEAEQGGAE

Biological target: Flag-PRMT5 (protein arginine methyltransferase 5) (UniProt O14744)
Test: co-IP; HEK293 and HT29 stable lines co-expressing Myc-YBX1 and Flag-PRMT5, untreated or IL-1β stimulated; lysis in 1% Triton X-100, 50 mM Tris-HCl pH 7.4, 150 mM NaCl, 1 mM EDTA; beads at 4 °C overnight; blots with anti-Myc and anti-Flag

For “Myc-tagged WT-YBX1 (from UniProt P67809 1-324)”, the binding was “binds”.
